# Source: PubChem BioAssay AID1487 (National Center for Advancing Translational Sciences (NCATS), 2009)
# Where “and” joins values, the source holds several entries; their conditions need not be identical. Equal entries are not always repeated. The list shows a part of the results. The main result of the screen is listed elsewhere. These columns were measured beside it and carry no call. Compounds called inactive in the main read-out are mostly missing here. The note in brackets gives the kind of curve behind each potency; many fits are weak.
# Assay: qHTS Assay for Modulators of Lamin A Splicing
# Conditions: HeLa LMNA splicing GFP/RFP minigene ratio, 48 h
# How it was run: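 S3 HeLa stable clones carrying a lamin A-EGFP splicing minigene plus DsRed2 were seeded at 600 cells/well in Opti-MEM with 2% FBS, pin-dosed and incubated 48 h at 37°C. Acumen cytometry (488 nm) gave the GFP/RFP total-intensity ratio.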
# [1] = measured here: GFP splicing reporter channel
# [2] = measured here: RFP viability control channel
SMILES,AC50 [1],AC50 [2]
CC(=O)OC1CC[C@]2(C)C(CC[C@@]3(C)C2C(=O)C=C2C4C(C)C(C)CC[C@@]4(C(=O)O)CCC23C)C1(C)C (stereo partly drawn),"12.6 µM [rising, partial curve, poor fit]",
CCC(NC(=O)c1ccccc1NC(=O)c1ccccc1)C(=O)NNC(=O)CSc1nc2ccccc2o1 (stereo not drawn),,"10 µM [rising, partial curve]"
C=CCn1c(-c2ccccc2)nc(=S)c2c1CC(C)(C)OC2,,"0.282 µM [falling, full curve, poor fit]"
COc1ccccc1NC(=S)N(Cc1ccccc1)Cc1ccccn1,"12.6 µM [rising, partial curve, poor fit]","14.1 µM [rising, partial curve, poor fit]"
O=C(NCc1ccc(F)cc1)c1ccc2c(c1)nc1n2CCCCC1,"0.316 µM [rising, partial curve, poor fit]",
O=C(C1CCCN(S(=O)(=O)c2ccccc2)C1)N1CCCCCC1 (stereo not drawn),"12.6 µM [rising, partial curve]","31.6 µM [rising, partial curve]"
Cc1ccc(C)c(NC(=O)c2cc(-c3ccccc3)nn2-c2ccccc2)c1,"17.8 µM [rising, single point]","35.5 µM [rising, single point]"
CN(C)C(=O)c1ccc(-c2ccc3ncnc(Nc4ccc(F)cc4)c3c2)cc1,"11.2 µM [falling, partial curve]","15.8 µM [falling, partial curve, poor fit]"
CCCS(=O)(=O)N1CCC(N2CCN(Cc3ccc(F)cc3)C(=O)C2=O)CC1,"1.12 µM [rising, full curve]","1.12 µM [rising, full curve]"
CCOC(=O)C1C(=O)C=C(c2cccc(NS(C)(=O)=O)c2)CC1c1ccco1 (stereo not drawn),,"12.6 µM [rising, single point]"
O=C(c1ccc2c(c1)OCO2)N1CCN=C1SCc1ccccc1,,"10 µM [rising, partial curve, poor fit]"
O=C(O)CNS(=O)(=O)/C=C/c1ccccc1,"6.31 µM [falling, single point]",
CCOc1ccc(C2C(=O)N(C3CCCCC3)CC(=O)N2CCC2=CCCCC2)cc1OC (stereo not drawn),"31.6 µM [rising, partial curve, poor fit]","12.6 µM [rising, partial curve, poor fit]"
Cc1ccc2c(c1)cc(CN(C(=O)N1CCOCC1)C1CCCC1)c1nnnn12,"0.0501 µM [falling, full curve, poor fit]","0.0794 µM [falling, full curve, poor fit]"
CC(=O)Nc1ccc(S(=O)(=O)Nc2cccc(-c3ccc(N4CCCCCC4)nn3)c2)cc1,"0.00891 µM [falling, full curve, poor fit]","0.00794 µM [falling, full curve, poor fit]"
CCOc1ccc(-c2cnc(SCC(N)=O)nc2N)cc1,"35.5 µM [rising, single point]",
Cn1cc(CN2CCCC(CO)(Cc3cccc(Cl)c3)C2)cn1 (stereo not drawn),,"0.0282 µM [falling, full curve, poor fit]"
CCN(C(=O)CSc1nc2ccccc2c(=O)n1-c1cccc(C)c1)C1CCS(=O)(=O)C1 (stereo not drawn),,"4.47 µM [rising, partial curve]"
COc1cccc2c1C(=O)c1c(O)c3c(c(O)c1C2=O)C[C@@](O)(C(C)=O)C[C@@H]3O[C@H]1C[C@H](N)[C@H](O)[C@H](C)O1,"3.55 µM [falling, partial curve] and 5.62 µM [falling, full curve]",
O=C(NCC1CCCO1)c1ccc2c(=O)n(CC3CCCO3)c(SCC(=O)N3CCCC3)nc2c1 (stereo not drawn),,"1.26 µM [rising, single point]"
O=C(Cn1cnc2c(cnn2-c2ccccc2)c1=O)Nc1ccc(S(=O)(=O)N2CCOCC2)cc1,,"14.1 µM [rising, single point]"
O=C(Oc1cccc(-n2cnnn2)c1)c1sc2ccccc2c1Cl,,"5.62 µM [rising, single point]"
S=C(Nc1ccc(Oc2ccccc2)cc1)N1CCN(c2ccccn2)CC1,,"0.2 µM [rising, full curve, poor fit]"
CC(C)CC(COCc1ccc(Cl)cc1)N1CCN(C(=O)c2cccc(C(F)(F)F)c2)CCC1=O (stereo not drawn),"35.5 µM [rising, single point]","25.1 µM [rising, single point]"
O=C(NCc1cccs1)C1CCN(c2ccc(S(=O)(=O)N3CCOCC3)cc2Cl)CC1,"8.91 µM [rising, partial curve]","7.94 µM [rising, partial curve]"
CCN(CC)S(=O)(=O)c1ccc(N2CCOCC2)c(NC(=O)Cc2ccc(Cl)cc2)c1,,"15.8 µM [rising, single point]"
O=C(NCc1ccco1)c1nn2c(C(F)(F)F)cc(-c3cccs3)nc2c1Br,"31.6 µM [rising, single point]",

# Record cards (already shown):
# O=C(NCc1ccc(F)cc1)c1ccc2c(c1)nc1n2CCCCC1 in the list: AC50 [1]: 0.316 µM [rising, partial curve, poor fit]
# CCOc1ccc(C2C(=O)N(C3CCCCC3)CC(=O)N2CCC2=CCCCC2)cc1OC (stereo not drawn) in the list: AC50 [1]: 31.6 µM [rising, partial curve, poor fit]; AC50 [2]: 12.6 µM [rising, partial curve, poor fit]
# CCOC(=O)C1C(=O)C=C(c2cccc(NS(C)(=O)=O)c2)CC1c1ccco1 (stereo not drawn) in the list: AC50 [2]: 12.6 µM [rising, single point]

# (list continues)

SMILES,AC50 [1],AC50 [2]
C=CCn1c(SCC(=O)Nc2ccc3c(c2)OCO3)nnc1-c1ccccc1OC,,"11.2 µM [rising, single point]"
CCc1nc(N2CCC(C)CC2)c2oc3ccccc3c2n1,,"35.5 µM [rising, single point]"
COc1ccc(-c2cc3nc(C)cc(N4CC(C)CC(C)C4)n3n2)cc1 (stereo not drawn),,"35.5 µM [rising, single point]"
Cc1ccc(Cn2nnc3c(=O)n(CC(=O)NCc4ccc5c(c4)OCO5)cnc32)cc1,,"35.5 µM [rising, single point]"
Clc1ccc(-c2csc(-c3ccncc3)n2)cc1,,"0.01 µM [falling, full curve, poor fit]"
COC(=O)c1ccc(COc2ccccc2/C=C(\C#N)C(=O)Nc2c(C)cc(C)cc2C)cc1,"3.98 µM [falling, partial curve, poor fit]","20 µM [falling, single point]"
CCNc1ncc2nc(-c3ccccc3)c(=O)n(Cc3cccs3)c2n1,"5.01 µM [falling, partial curve]","11.2 µM [falling, partial curve]"
COc1ccc(C(C)=O)cc1CSc1nnc(Nc2ccccc2C)s1,"11.2 µM [rising, partial curve]","25.1 µM [rising, partial curve]"
COc1ccc(-c2cc(C(F)(F)F)nc(SCC(=O)NCc3cccs3)n2)cc1OC,"11.2 µM [rising, partial curve, poor fit]","12.6 µM [rising, single point]"
COCc1ccc(CN2CCCC(CO)(Cc3ccccc3)C2)o1 (stereo not drawn),"0.0224 µM [rising, full curve, poor fit]","31.6 µM [rising, partial curve]"
COc1cc([N+](=O)[O-])ccc1NC(=O)CSc1n[nH]c(C(C)C)n1,"11.2 µM [falling, partial curve, poor fit]",
COc1cc2c(cc1OC)C(COc1ccc(F)cc1)N(C(=O)Cc1ccccc1)CC2 (stereo not drawn),,"15.8 µM [rising, partial curve, poor fit]"
CCN(CC)S(=O)(=O)c1cc(NC(=O)CN2C(=O)NC3(CCCc4ccccc43)C2=O)ccc1C (stereo not drawn),"17.8 µM [rising, partial curve, poor fit]","25.1 µM [rising, partial curve]"
O=C(CSc1nc2cc(Cl)ccc2s1)NC1CCCc2ccccc21 (stereo not drawn),"10 µM [rising, partial curve]","20 µM [rising, partial curve]"
CC(C)[C@H](NC(N)=O)C(=O)NCCc1ccc(Cl)cc1,,"14.1 µM [falling, single point]"
Cn1cnc([N+](=O)[O-])c1Oc1ccc2ccccc2c1,,"35.5 µM [falling, single point]"
CC1(C)CC(=O)C(Sc2ccccc2[N+](=O)[O-])=C(O)C1,"0.0224 µM [falling, full curve, poor fit]",
Cc1ccccc1NC1=NC(=S)N(c2ccccc2)C12CCCCC2,,"22.4 µM [rising, single point]"
C=C1C(C(=O)Nc2cccc(OC)c2)C1C(=O)Nc1cccc(OC)c1 (stereo not drawn),"1.12 µM [falling, full curve]",
Cc1ccc(-c2nc(CS(=O)(=O)CC(=O)N3CCCCCC3)c(C)o2)cc1,,"12.6 µM [rising, partial curve]"
Cc1[nH]c2ccccc2c1C(=O)CSc1ncn[nH]1,,"35.5 µM [rising, single point]"
CCN1CCCC1CNc1ncnc2c1[nH]c1ccc(Cl)cc12 (stereo not drawn),"22.4 µM [rising, partial curve, poor fit]","22.4 µM [rising, single point]"
O=C(Nc1ccc(NC(=O)C2CCCN2C(=O)OCc2ccccc2)cc1)c1ccco1 (stereo not drawn),"1 µM [rising, full curve, poor fit]",
COC(=O)c1ccc(-c2noc(CN(Cc3nccn3C)C(C)C)n2)cc1,,"1.26 µM [falling, full curve, poor fit]"
O=c1oc2ccccc2cc1-c1nc2c(s1)CCCC2,"10 µM [rising, single point]","12.6 µM [rising, partial curve]"
COCCn1c(C)cc(C(=O)CSc2nc3nc(C)cc(C)n3n2)c1C,"3.55 µM [rising, partial curve, poor fit]","5.01 µM [rising, partial curve, poor fit]"
